Screen size: about 300,000 compounds; about 5,400 (1.8%) were called active. Inconclusive means that the source gave no clear call. Such entries were picked first, then a sample of the others. Calls follow the shape of the full dose curve; tested in HEK293 cells. A potency beside an inconclusive call is a rough fit, not a confirmed value.
Assay: qHTS for inhibitors of binding or entry into cells for Marburg Virus
Settings: Marburg virus pseudotyped entry inhibition, cell reporter; activity change, negative = inhibition: at 37.8 µM (top of the series) unless noted
With `CC1=CN2C(=N)/C(=C/c3cn(CCCOc4ccccc4C)c4ccccc34)C(=O)N=C2S1` the Potency was inconclusive: 8.91 µM [inhibitor, partial curve, poor fit].
For `CCS(=O)(=O)c1ccc(-c2csc(-c3ccc(Cl)cc3)n2)c(Cl)c1Cl`, the Potency was inconclusive: 4.47 µM [activator, full curve, poor fit].
In the case of `COc1ccc(C(=O)Nc2ccccc2-c2ccccc2)cc1Cl`, the Potency is reported as inconclusive: 17.8 µM [inhibitor, partial curve, poor fit].
In the case of `O=C1CCC(c2ccccc2)=NN1Cc1c(F)cccc1Cl`, the Potency is reported as inconclusive: 2.59 µM [inhibitor, partial curve, poor fit].
In the case of `CCOP(=O)(OCC)C(NC(=O)c1ccc(C)cc1)C(Cl)(Cl)Cl` (centres undefined), the Potency is reported as inconclusive: 1.3 µM [activator, full curve, poor fit].
For `O=C(Nc1ccc(Cl)c(S(=O)(=O)N2CCOCC2)c1)c1cc(-c2ccccn2)nc2ccccc12`, the Potency was inconclusive: 5.01 µM [inhibitor, partial curve, poor fit].
For `CN1CCN(c2ccccc2NC(=O)c2cc3ccccc3o2)CC1`, the Potency was inconclusive: 23.1 µM [inhibitor, single point].
For `CCCN1CCCC(C(=O)c2cc(C)c(OC)c(C)c2)C1` (centres undefined), the Potency was inconclusive: 1.26 µM [inhibitor, full curve].
With `Oc1ccc(CN2CCc3ccccc3C2)c2cccnc12` the Potency was active: 3.26 µM.
In the case of `Cc1ccc(C(=O)Nc2cccc(C(=O)N3CCN(C)CC3)c2)cc1`, the “activity change, negative = inhibition” value is reported as inactive: 5.13%.
With `COc1ccc(-c2nnc(NC(=O)c3ccc(S(=O)(=O)N4COCC4(C)C)cc3)o2)cc1` the Potency was inconclusive: 11.2 µM [inhibitor, partial curve, poor fit].
For `CN(Cc1cccnc1)C(=O)c1ccc(Cl)c(NS(=O)(=O)c2ccc(F)cc2)c1`, the Potency was inconclusive: 3.98 µM [activator, single point].
With `Cc1ccccc1OCCSc1nc(C)c(Cc2ccccc2)c(=O)[nH]1` the “activity change, negative = inhibition” value was inactive: 9.05% [at 46.1 µM].
With `COc1ccc(NC(=O)c2csc3c2CCCC3)cc1` the “activity change, negative = inhibition” value was inactive: -20.5%.
In the case of `CC(CN(C)Cc1nc(Cc2cccc(C(F)(F)F)c2)no1)CN1CCCC1` (centres undefined), the Potency is reported as inconclusive: 0.562 µM [activator, partial curve, poor fit].
With `COc1ccc(-c2nnc(N(C)C(=O)C3CCOC3)s2)cc1` (centres undefined) the Potency was inconclusive: 1 µM [activator, single point].
In the case of `O=C(c1ccc([N+](=O)[O-])s1)N1CCCc2ccccc21`, the Potency is reported as inconclusive: 10 µM [inhibitor, partial curve, poor fit].
In the case of `Cc1nn(-c2nc3ccccc3s2)c(N)c1-c1ccccc1`, the “activity change, negative = inhibition” value is reported as inactive: 0.0716%.
In the case of `CCOC(=O)C1=C(C)Nc2ccc(C)cc2S1`, the “activity change, negative = inhibition” value is reported as inactive: -5.66% [at 46.1 µM].
In the case of `CN1CCO/C1=C(\C(Cl)=C(Cl)Cl)[N+](=O)[O-]`, the “activity change, negative = inhibition” value is reported as inactive: 7.36% [at 14.2 µM].
For `O=C(NCCN1CCCCC1)Nc1ccc(Br)cc1`, the “activity change, negative = inhibition” value was inactive: 0.242%.
In the case of `O=C(Nc1cccc(F)c1)c1ccc2c(c1)OCO2`, the Potency is reported as inconclusive: 35.5 µM [inhibitor, single point].
For `Cc1nn(Cc2ccc(F)cc2)c(Cl)c1/C=N/NC(=O)c1ccccc1`, the “activity change, negative = inhibition” value was inactive: 0.774% [at 46.1 µM].
In the case of `Cc1ccc(C)c(NC(=O)C2CCN(c3nn4c(=O)cc(C)nc4s3)CC2)c1`, the Potency is reported as inconclusive: 6.31 µM [activator, single point].
For `COc1ccc(NC(=O)Cn2cc(C#N)c3ccccc32)cc1`, the Potency was inconclusive: 1.58 µM [inhibitor, partial curve, poor fit].
In the case of `O=C(Nc1ccc(NC(=S)NC(=O)c2ccccc2Cl)cc1)c1cccc(Cl)c1`, the Potency is reported as inconclusive: 35.5 µM [inhibitor, single point].
With `Cc1cc(C)c2c(-n3cccc3)c(C(=O)NCCCN3CCCCC3)sc2n1` the Potency was inconclusive: 22.4 µM [activator, single point].
With `c1ccc(CSc2nnc(-c3cccnc3)o2)cc1` the “activity change, negative = inhibition” value was inactive: 12.2%.
With `Cc1cccc(-c2n[nH]c([N+](=O)[O-])n2)c1` the “activity change, negative = inhibition” value was inactive: 0.952%.
With `Cc1ccc(C)c(S(=O)(=O)NCc2ccc(C(=O)NCc3ccco3)cc2)c1` the Potency was inconclusive: 6.31 µM [inhibitor, single point].
For `COc1cccc(C(=O)NNC2OC(CO)C(O)C2O)c1` (centres undefined), the Potency was inconclusive: 12.6 µM [activator, partial curve].
With `Cc1cccc(NC(=S)NCc2ccc3c(c2)OCO3)c1C` the Potency was inconclusive: 5.62 µM [inhibitor, single point].
With `COc1ccc(F)cc1S(=O)(=O)N1CCN(Cc2ccc3c(c2)OCO3)CC1` the Potency was inconclusive: 1.78 µM [activator, partial curve, poor fit].
For `O=c1[nH]c2ccccc2cc1CN(c1ccccc1)S(=O)(=O)c1ccccc1`, the Potency was inconclusive: 0.891 µM [inhibitor, full curve, poor fit].
With `O=C(CCCCCN1C(=O)CCC1=O)Nc1ccc2c(c1)OCCO2` the Potency was inconclusive: 5.62 µM [activator, single point].
For `COCCn1c(SCC(=O)N2CC(=O)Nc3ccccc32)nc2ccccc21`, the Potency was inconclusive: 31.6 µM [inhibitor, single point].
In the case of `COc1ccccc1NC(=O)CC1C(=O)Nc2ccccc2N1C(=O)c1ccccc1` (centres undefined), the Potency is reported as inconclusive: 1 µM [inhibitor, full curve, poor fit].
For `CC(C)(C)n1nnnc1C(c1ccccc1F)N1CCN(C2CCCC2)CC1` (centres undefined), the Potency was inconclusive: 1 µM [activator, single point].
In the case of `CCOc1cc(-c2ccc(N)c(OCC)c2)ccc1N`, the “activity change, negative = inhibition” value is reported as inactive: -10.1%.
For `Nc1nc(-c2ccccc2)c(N=Nc2cccnc2)s1`, the Potency was inconclusive: 2.82 µM [activator, partial curve, poor fit].
In the case of `CC(=O)Nc1cccc(/C(C)=N/NC(=O)c2cc(-c3ccncc3)nc3ccccc23)c1`, the “activity change, negative = inhibition” value is reported as inactive: 4.26% [at 46.1 µM].
In the case of `CCOC(=O)C1=C(C)Nc2ccccc2N=C1N`, the Potency is reported as inconclusive: 0.501 µM [activator, full curve, poor fit].
With `O=C(c1cn(CC(=O)N2CCCC2)c2ccccc12)C1CCCCC1` the Potency was inconclusive: 0.0046 µM [activator, full curve, poor fit].
With `O=C(N/N=C/c1ccc(F)cc1)c1ccncc1` the Potency was inconclusive: 5.62 µM [inhibitor, single point].
In the case of `CN1CCN(CC(=O)Nc2cc(N(C)C)nc3ccccc23)CC1`, the Potency is reported as inconclusive: 17.8 µM [inhibitor, partial curve, poor fit].
For `O=C(Nc1ccccc1)NC1CCN(Cc2nnnn2C2CCCCC2)CC1`, the Potency was inconclusive: 2.31 µM [inhibitor, partial curve, poor fit].
In the case of `Cc1cc(S(=O)(=O)N2CCOCC2)ccc1OCC(=O)Nc1ccc(F)cc1`, the “activity change, negative = inhibition” value is reported as inactive: 18.3% [at 46.1 µM].
In the case of `CSc1nnc(-c2cccc(NC(=O)c3ccccc3)c2)n1C`, the Potency is reported as inconclusive: 5.62 µM [inhibitor, single point].
With `COC(=O)c1ccccc1NC(=O)Nc1cc(C(C)(C)C)on1` the “activity change, negative = inhibition” value was inactive: -27.2%.
For `CCCCCOc1ccc(C2c3c(oc4ccccc4c3=O)C(=O)N2c2nc(C)c(C)s2)cc1OCC` (centres undefined), the Potency was inconclusive: 14.1 µM [activator, single point].
With `COc1ccc(C2=NN3C(C2)c2ccccc2OC32C(=O)N(C)c3ccccc32)cc1` (centres undefined) the Potency was inconclusive: 0.316 µM [activator, full curve, poor fit].
For `CCOCc1c(C(=O)OCC(=O)/C(C#N)=C(\C)N)oc2ccccc12`, the Potency was inconclusive: 15.8 µM [inhibitor, single point].
With `O=C(CSc1nnc(COc2cccc3ccccc23)o1)N1c2ccccc2CCc2ccccc21` the Potency was inconclusive: 20 µM [inhibitor, single point].
In the case of `CCCOc1ccc(N2C(=O)CC(NCc3cccs3)C2=O)cc1` (centres undefined), the “activity change, negative = inhibition” value is reported as inactive: -0.415%.
With `O=C(NCC#CCOCc1ccccc1)c1ccccc1` the “activity change, negative = inhibition” value was inactive: 26.4%.
In the case of `Cc1ncc(NS(=O)(=O)c2ccc(N)cc2)nc1C`, the “activity change, negative = inhibition” value is reported as inactive: 1.33%.
For `Cc1ccc2oc(-c3ccc(Cl)c(NC(=O)c4ccc(-c5ccccc5[N+](=O)[O-])o4)c3)nc2c1`, the “activity change, negative = inhibition” value was inactive: 9.96% [at 46.1 µM].
For `CCN1CCN(c2cc(C)c3cc(NC(=S)N4CC(C)CC(C)C4)ccc3n2)CC1` (centres undefined), the Potency was inconclusive: 11.2 µM [inhibitor, partial curve, poor fit].
With `COc1ccc(OC)c2c(C)cc(C)nc12` the Potency was inconclusive: 0.0651 µM [inhibitor, full curve, poor fit].
With `O=C(Nc1ccccc1Cc1ccccc1)C1CC(=O)N(c2ccc3c(c2)OCCO3)C1` (centres undefined) the Potency was inconclusive: 1.16 µM [inhibitor, partial curve].
For `Cc1ccc(-n2sc3ccccc3c2=O)cc1`, the Potency was active: 3.16 µM.
With `O=[N+]([O-])c1ccc(N2CCCCCC2)c2nonc12` the “activity change, negative = inhibition” value was inactive: -23.8% [at 46.1 µM].
In the case of `CCn1ccnc1CN1CCc2c([nH]c3ccccc23)C1C(C)(C)C` (centres undefined), the Potency is reported as inconclusive: 10 µM [inhibitor, partial curve, poor fit].
For `COc1ccc(NC(=S)N(CCCN2CCCC(C)C2)Cc2cccs2)cc1` (centres undefined), the Potency was inconclusive: 14.1 µM [inhibitor, partial curve, poor fit].
With `O=C(Nc1ccc(N2CCOCC2)cc1)c1cc2c(s1)CCCC2` the Potency was inconclusive: 35.5 µM [inhibitor, single point].
For `Cc1cccc(NC(=O)Cn2cc(C(=O)c3ccco3)c3ccccc32)c1C`, the Potency was inconclusive: 1 µM [inhibitor, full curve, poor fit].
In the case of `COc1ccc(CN2C(=O)C(NC(=O)c3ccccc3C)(C(F)(F)F)N=C2c2ccccc2)cc1` (centres undefined), the Potency is reported as inconclusive: 22.4 µM [inhibitor, partial curve, poor fit].
With `CCCCC1=CC2=CC(=O)C(C)(OC(=O)CCc3ccccc3)C(=O)C2=CO1` (centres undefined) the Potency was “inactive”.
With `CCC[N+]1(CC#CC(O)(c2ccccc2)C2CCCCC2)CCCCC1` (centres undefined) the “activity change, negative = inhibition” value was inactive: 7.45%.
% is scaled to controls: 0 for no effect and ±100 for the full control effect; potency is read from the fitted curve at half-maximal effect.
